Values joined by “and” are separate entries in the source; they are usually repeats but may differ in a detail not shown here. Identical values can stand only once. Part of at least one peptide drawing is inferred or uncertain, most often the ends.
What was measured:
[1] = system: release of growth hormone; experiment: release of growth hormone in pentobarbital-stimulated rats; assay type: in vivo, Spraque-Dawley rats; details: 50 μg./rat subcutaneously, sodium pentobarbital stimulated, somatostatin comparator run in each set
Method: D-Phe^11 -somatostatin, L-Cha^11 -somatostatin, and L-Leu^11 -somatostatin also were tested for their activity with respect to the release of growth hormone. The procedure which was employed is carried out using mature male Spraque-Dawley rats (Laboratory Supply Company, Indianapolis, Indiana). The test is a modification of the method of P. Brazeau, W. Vale, and R. Guilleman, Endocrinology, 94 184 (1974). In each assay, a set comprising three groups of eight rats each was employed. First, sodium pentobarbital was administered to all of the rats of the particular set to stimulate growth hormone secretion. In each set, one group served as control group and received only saline. A second group received somatostatin at 50 μg./rat, subcutaneously. The third group received test compound at 50 μg./rat, subcutaneously. The degree of inhibition of serum growth hormone concentration then was determined with respect to the control group, and the relative activities of test compound and somatostatin itself were compared.

[2] = system: glucagon secretion; experiment: in vivo inhibition of glucagon secretion upon stimulation with L-alanine; design: species or system mongrel dogs; details: dogs, intravenous infusion; D-Phe11 0.211, L-Cha11 0.235, L-Leu11 0.195 μg/kg/min.; L-alanine 1 mmol/kg
Method: (§1) The tetradecapeptides were tested for their in vivo activity in inhibiting glucagon and insulin secretion upon stimulation with L-alanine. Normal mongrel dogs of either sex were fasted overnight. Control blood samples were obtained, and then an intravenous infusion of saline, somatostatin, or test compound was started. After 30 minutes, L-alanine additionally was administered intravenously for a period of 15 minutes. The infusion of saline, somatostatin, or test compound was continued for 15 minutes after completion of the alanine infusion. The total dose of somatostatin or test compound which was infused is 200-500 μg/dog (about 0.20-0.30 μg/kg./minute), and the total dose of L-alanine infused was 1 mmol/kg. The infusion of L-alanine produced an abrupt increase in the serum concentration of glucagon and insulin. This returned to control concentration when the alanine infusion was discontinued.

[3] = system: insulin secretion; experiment: in vivo inhibition of insulin secretion upon stimulation with L-alanine; design: species or system mongrel dogs; details: dogs, intravenous infusion
Method: as §1

[4] = system: glucagon secretion; experiment: in vivo inhibition of glucagon secretion upon stimulation with insulin; design: species or system mongrel dogs; details: dogs, insulin 0.3 units/kg.
Method: The tetradecapeptides also were evaluated for in vivo activity in inhibiting glucagon secretion upon stimulation with insulin. Normal mongrel dogs of either sex were fasted overnight. After control blood samples had been obtained, an intravenous infusion of saline, somatostatin, or the test compound was commenced. After 15 minutes, insulin, 0.3 units/kg., was injected intravenously. The infusion of saline, somatostatin, or the test compound was continued for two hours, and blood samples were obtained at various intervals throughout the test. The total dose of the somatostatin or test compound ranged from 120-260 μg./dog (0.07-0.13 μg/kg/min.). Administration of insulin produced a reduction in the blood glucose concentration and an increase in serum glucagon concentration.

[5] = system: secretion of growth hormone (GH); details: Brazeau et al., Science, 179, 77 (1973); cited from earlier work

In the case of `C[C@H](N)C(=O)NCC(=O)N[C@H]1CSSC[C@@H](C(=O)O)NC(=O)[C@H](CO)NC(=O)[C@H]([C@@H](C)O)NC(=O)[C@H](Cc2ccccc2)NC(=O)[C@H]([C@@H](C)O)NC(=O)[C@H](CCCCN)NC(=O)[C@H](Cc2c[nH]c3ccccc23)NC(=O)[C@H](Cc2ccccc2)NC(=O)[C@H](Cc2ccccc2)NC(=O)[C@H](CC(N)=O)NC(=O)[C@H](CCCCN)NC1=O` [somatostatin, Somatostatin], the “inhibition of the increase in serum growth hormone concentration over control” value [1] is reported as 57% and 73% and 87%, the “effect on the increase in serum glucagon concentration produced by infusion of L-alanine” value [2] is reported as “inhibited the rise in concentration of both glucagon and insulin” and the “effect on the increase in serum insulin concentration produced by infusion of L-alanine” value ([3]; D-Phe11 0.211, L-Cha11 0.235, L-Leu11 0.195 μg/kg/min., L-alanine 1 mmol/kg) is reported as “inhibited the rise in concentration of both glucagon and insulin”. The “effect on basal serum insulin concentration” value ([3]; L-Cha11 0.235, L-Leu11 0.195 μg/kg/min., somatostatin about 0.20-0.30 μg/kg./minute) was “caused a decrease in basal serum insulin concentration”, the “effect on the reduction of the blood glucose concentration produced by insulin” value ([4]; intravenous infusion 0.07-0.13 μg/kg/min.) was “had no effect on the reduction of the blood glucose concentration” and the “effect on the increase in serum glucagon concentration produced by insulin administration” value ([4]; intravenous infusion for two hours, D-Phe11 0.128, L-Cha11 0.130, L-Leu11 0.129 μg/kg/min.) was “blocked the increase in serum glucagon concentration”. The “inhibiting the secretion of growth hormone (GH)” value [5] was “active in inhibiting the secretion of growth hormone (GH)”.

Reference: patent US4061607A, “Somatostatin analogs and intermediates thereto” (Eli Lilly and Company, priority 1976, dated 1977)
